# Experimental data as given in the supplement of paper PMC7877785.
# ± gives the uncertainty stated by the source. Many of these values have a large error.
# Test: self-splicing fitness, log relative to wild type (ln ratio); higher = more splicing; Tetrahymena group I intron in knt gene, E. coli kanamycin selection, DiMSum; sequences stand for … in CUCUCU…GGAGGGAAAAGUUAUCAGGCAUGCACCUGGUAGCUAGUCUUUAAACCAAUAGAUUGCAUCGGUUUAAAAGGCAAGACCGUCAAAUUGCGGGAAAGGGGUCAACAGCCGUUCAGUACCAAGUCUCAGGGGAAACUUUGAGAUGGCCUUGCAAAGGGUAUGGUAAUAAGCUGACGGACAUGGUCCUAACCACGCAGCCAAGUCCUAAGUCAACAGAUCUUCUGUUGAUAUGGAUGCAGUUCACAGACUAAAUGUCGGUCGGGGAAGAUGUAUUCUUCUCAUAAGAUAUAGUCGGACCUCUCCUUAAUGGGAGCUAGCGGAUGAAGUGAUGCAACACUGGAGCCGCUGGGAACUAAUUUGUAUGCGAAAGUAUAUUGAUUAGUUUUGGAGUACUCGUGGUCG
# Method in brief: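 DiMSum derived fitness as the error-weighted combination of fold changes across replicates, kanamycin versus no kanamycin, normalised to wild type. E. coli BL21(DE3) held the library, which randomised all eight P1ex-region intron nucleotides within the knt kanamycin-resistance gene on pET-22b(+). Six replicate transformations grew overnight at 37°C or 30°C on LB agar with or without 25 μg/mL kanamycin, also containing 100 μg/mL carbenicillin, 50 μM IPTG and 0.2% rhamnose, and pooled colonies were amplicon-sequenced on an Illumina HiSeq 2500.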
Sequence,self-splicing fitness (ln) (30 °C),self-splicing fitness (ln) (37 °C)
CUUUAGCAAUAUUACGCCGC,-3.88 ± 1.1,-1.29 ± 1.2
UAAAAGCAAUAUUACGCGAG,-0.897 ± 0.075,-0.186 ± 0.095
UCCCAGCAAUAUUACGGAGC,-1.44 ± 0.098,-1.44 ± 0.18
GCCGAGCAAUAUUACGCGCG,–,-2.2 ± 0.51
CUUUAGCAAUAUUACGACUC,–,-2.04 ± 0.56
CCCGAGCAAUAUUACGAACG,-1.87 ± 0.58,–
GUUUAGCAAUAUUACGACGC,0.0175 ± 0.18,-0.0772 ± 0.24
CACGAGCAAUAUUACGGCGC,-5.09 ± 1,–
AGUGAGCAAUAUUACGCCAG,-3.87 ± 1,–
CAGCAGCAAUAUUACGUCCC,–,-1.99 ± 0.79
AUUCAGCAAUAUUACGCUAC,-3.48 ± 1.1,-2.08 ± 0.56
CUUAAGCAAUAUUACGUAGC,–,-3.86 ± 0.59
CGGGAGCAAUAUUACGGCGC,-3.97 ± 0.6,-1.59 ± 0.88
UCAUAGCAAUAUUACGCGUC,–,-2.69 ± 0.62
AACGAGCAAUAUUACGAUUC,-3.31 ± 1,–
GCUCAGCAAUAUUACGCCAA,–,-3.18 ± 1
UCCCAGCAAUAUUACGGCCC,-2.36 ± 1.2,–
GUACAGCAAUAUUACGCAUC,-3.74 ± 0.23,-1.36 ± 0.19
CCUCAGCAAUAUUACGAAAC,-3.14 ± 0.53,–
CGCAAGCAAUAUUACGUGUC,-2.39 ± 0.12,-2.68 ± 0.16
GUGAAGCAAUAUUACGUUGC,-4.23 ± 0.75,–
AACGAGCAAUAUUACGUCGA,-4.98 ± 1,–
GCAGAGCAAUAUUACGAUCU,-3.66 ± 1,-1.41 ± 0.51
CCGAAGCAAUAUUACGGGGA,-3.16 ± 0.19,-2.96 ± 0.19

# Whole records from above. Values in the order: self-splicing fitness (ln) (30 °C) | self-splicing fitness (ln) (37 °C)
# GCAGAGCAAUAUUACGAUCU as listed: -3.66 ± 1 | -1.41 ± 0.51
# GUACAGCAAUAUUACGCAUC as listed: -3.74 ± 0.23 | -1.36 ± 0.19
# CCCGAGCAAUAUUACGAACG as listed: -1.87 ± 0.58 | –
# UAAAAGCAAUAUUACGCGAG as listed: -0.897 ± 0.075 | -0.186 ± 0.095

# Continued.

Sequence,self-splicing fitness (ln) (30 °C),self-splicing fitness (ln) (37 °C)
UCGUAGCAAUAUUACGUAUC,-2.71 ± 1.1,-0.812 ± 0.52
GCCAAGCAAUAUUACGAGUG,-2.32 ± 0.087,-1.72 ± 0.093
GGCGAGCAAUAUUACGCGUC,-4.33 ± 0.72,–
GCCUAGCAAUAUUACGGAGC,-2.44 ± 0.13,-1.43 ± 0.1
CGCAAGCAAUAUUACGUACU,-1.64 ± 0.075,-0.119 ± 0.096
UGUGAGCAAUAUUACGCAAG,-3.34 ± 0.74,-2.95 ± 0.61
UAUUAGCAAUAUUACGAUGC,-1.96 ± 1.2,-2.48 ± 0.77
GGGGAGCAAUAUUACGAUCU,-1.4 ± 1.2,-0.267 ± 0.54
CUGGAGCAAUAUUACGCACU,-3.34 ± 0.76,-1.98 ± 0.66
GUUUAGCAAUAUUACGCAAA,-3.1 ± 0.63,-2.76 ± 0.61
UGGGAGCAAUAUUACGCGCU,-3.48 ± 1.1,–
GAGUAGCAAUAUUACGGCAG,-3.3 ± 0.61,-3.64 ± 0.52
GGAGAGCAAUAUUACGGUCC,-3.34 ± 0.78,–
UAUUAGCAAUAUUACGAGAC,–,-1.9 ± 0.58
GUCUAGCAAUAUUACGAGGA,–,-2.3 ± 0.78
GUGUAGCAAUAUUACGGGGC,–,0.694 ± 1.1
AGAAAGCAAUAUUACGCCCC,–,-0.661 ± 0.59
UAAGAGCAAUAUUACGGUAC,-4.09 ± 1,–
AAAGAGCAAUAUUACGGGUG,-3.95 ± 0.21,-1.88 ± 0.19
UCUUAGCAAUAUUACGUAUC,-4.29 ± 1.1,-1.6 ± 0.62
UGGGAGCAAUAUUACGGGCU,–,-2.32 ± 0.64
AUUUAGCAAUAUUACGCCUC,-3.5 ± 1,–
AUCAAGCAAUAUUACGUUGC,-3.84 ± 0.18,-2 ± 0.15
UUAUAGCAAUAUUACGAAAC,-2.48 ± 0.69,-2.29 ± 1.1

Sequence,self-splicing fitness (ln) (30 °C),self-splicing fitness (ln) (37 °C)
UUUUAGCAAUAUUACGUCCU,-2.91 ± 1.1,–
CCGGAGCAAUAUUACGCUGG,–,-2.13 ± 0.5
UAGGAGCAAUAUUACGGAGC,–,-1.3 ± 0.6
GUGGAGCAAUAUUACGCUGC,-2.16 ± 0.75,-1.62 ± 1.1
GGAUAGCAAUAUUACGCAGG,-5.14 ± 1,-2.57 ± 0.54
CCUCAGCAAUAUUACGUGGC,-3.94 ± 0.22,-3.01 ± 0.24
GCUGAGCAAUAUUACGUUGG,-2.52 ± 0.26,-1.9 ± 0.28
GCUAAGCAAUAUUACGGGCC,-3.12 ± 0.75,–
CUGAAGCAAUAUUACGAAGC,-3.8 ± 0.72,–
UGAGAGCAAUAUUACGGAUU,–,-2.37 ± 0.55
UUGGAGCAAUAUUACGCUCG,-0.158 ± 0.62,-0.0228 ± 0.55
CGUUAGCAAUAUUACGUCUU,-4.03 ± 0.26,-1.29 ± 0.099
GGUCAGCAAUAUUACGGCGA,0.307 ± 0.14,0.838 ± 0.14
AGAGAGCAAUAUUACGCAUU,-3.41 ± 0.18,-2.35 ± 0.15
CUAUAGCAAUAUUACGACCU,–,-1.54 ± 1.2
GUGUAGCAAUAUUACGAGCG,-3.9 ± 0.53,–
AAGGAGCAAUAUUACGAGUG,-4.23 ± 1,–
CUAUAGCAAUAUUACGGAUA,-5.05 ± 1,–
UUCUAGCAAUAUUACGCUGC,-3.81 ± 1,–
GUUCAGCAAUAUUACGCCAG,-2.06 ± 0.29,-2.41 ± 0.56
CUGUAGCAAUAUUACGGCAA,–,-3.76 ± 0.59
UUGCAGCAAUAUUACGAAAG,-4.21 ± 0.52,–
UGUGAGCAAUAUUACGUGCC,–,-2.2 ± 0.55
AGGUAGCAAUAUUACGAAGU,-3.22 ± 0.026,-1.56 ± 0.037

Sequence,self-splicing fitness (ln) (30 °C),self-splicing fitness (ln) (37 °C)
CGUAAGCAAUAUUACGAGAA,-1.52 ± 1.2,-0.373 ± 0.92
AAGUAGCAAUAUUACGAUCG,-1.43 ± 0.1,-0.453 ± 0.15
UCAUAGCAAUAUUACGAGGA,-3.42 ± 0.34,-0.473 ± 0.21
UAGCAGCAAUAUUACGUGCG,-0.801 ± 0.076,0.26 ± 0.081
GUCGAGCAAUAUUACGCCAG,-3.39 ± 0.55,–
CUCUAGCAAUAUUACGGGCU,-4.45 ± 0.59,-4.2 ± 0.51
CUGGAGCAAUAUUACGCUCU,-2.84 ± 0.75,-2.15 ± 0.51
UGUUAGCAAUAUUACGUAGC,-4.43 ± 0.59,–
UUUUAGCAAUAUUACGGGGC,-3.2 ± 0.54,-2.63 ± 1
CAUGAGCAAUAUUACGUUCC,-1.38 ± 0.52,–
CUUUAGCAAUAUUACGCAUC,-4.41 ± 0.59,–
UGAUAGCAAUAUUACGGGCC,–,-2.18 ± 0.52
ACAUAGCAAUAUUACGCAAC,-3.7 ± 0.52,-2.79 ± 0.53
UAUAAGCAAUAUUACGCUUC,-3.58 ± 0.38,-3.09 ± 1
CGGAAGCAAUAUUACGGAAG,-4.64 ± 0.59,–
UCUGAGCAAUAUUACGCCUC,-2.94 ± 1.1,-0.681 ± 1
GGCGAGCAAUAUUACGCGAC,–,-0.195 ± 0.56
AACGAGCAAUAUUACGAUCA,-2.1 ± 0.21,-1.41 ± 0.21
CUAAAGCAAUAUUACGUCCC,-2.98 ± 0.63,-2.09 ± 0.63
GGUAAGCAAUAUUACGAUAG,-3.14 ± 0.2,-2.14 ± 0.24
UAAGAGCAAUAUUACGGAAA,-3.36 ± 0.61,-3.68 ± 0.59
CUUGAGCAAUAUUACGAUCC,-3.34 ± 1.1,–
AACUAGCAAUAUUACGAGAC,–,-3.27 ± 0.6
UAUUAGCAAUAUUACGGAGC,–,-2.98 ± 1.1

Sequence,self-splicing fitness (ln) (30 °C),self-splicing fitness (ln) (37 °C)
UCUGAGCAAUAUUACGGAUC,-4.21 ± 0.59,-2.98 ± 1.1
CUGGAGCAAUAUUACGUUGC,–,-1.88 ± 0.58
ACGGAGCAAUAUUACGCCAU,–,-3.69 ± 0.59
AGGGAGCAAUAUUACGUUCU,–,-3.29 ± 0.73
GGAGAGCAAUAUUACGCGUC,-2.52 ± 0.52,-2.42 ± 0.77
CAGGAGCAAUAUUACGUGGC,-4.94 ± 1,–
ACAAAGCAAUAUUACGAAAC,-3.91 ± 0.59,–
AGAUAGCAAUAUUACGUUUC,–,-3.48 ± 0.52
GGAGAGCAAUAUUACGUGGC,-4.96 ± 0.71,–
CUGUAGCAAUAUUACGAACA,–,-2.63 ± 0.54
GAAAAGCAAUAUUACGAUGC,-0.709 ± 0.08,-0.503 ± 0.1
UUUUAGCAAUAUUACGCGAC,–,-2.43 ± 0.54
GAUAAGCAAUAUUACGCCGC,-3.54 ± 0.73,–
CCUAAGCAAUAUUACGAGUC,–,-2.97 ± 0.74
GGUAAGCAAUAUUACGUACC,–,0.0117 ± 1.2
GGCGAGCAAUAUUACGCAUU,-1.13 ± 0.11,-0.998 ± 0.14
CCGGAGCAAUAUUACGAAUA,-3.1 ± 0.61,–
CUCGAGCAAUAUUACGAUCA,–,-2.53 ± 0.76
CCCUAGCAAUAUUACGUAAA,-4.48 ± 0.59,–
UGACAGCAAUAUUACGGAAA,-2.03 ± 0.12,-1.75 ± 0.14
CCAGAGCAAUAUUACGAGCC,-4.07 ± 0.72,–
